Experimental data reported in US8614193 (dated 2013).

Assay: general procedure: solution-phase peptide synthesis; PyBOP / diisopropylethylamine; MNBA/DMAP for macrolactonisation
Conditions: late stage modification step
“3-((E)-(1 S,10S,21R)-7,7-Cyclopropyl-3,6,9,19,22-pentaoxo-2-oxa-12,13-dithia-5,8,20,23-tetraaza-bicyclo[8.7.6]tricos-16-en-21-yl)-N-(2-methoxy-ethyl)-propionamide” gave a step yield of 47%.
Substance “3-((E)-(1S,9S,20R)-5-Hydroxy-6,6-cyclopropyl-3,8,18,21-tetraoxo-2-oxa-11,12-dithia-7,19,22-triaza-bicyclo[7.7.6]docos-15-en-20-yl)-N-(2,2,2-trifluoro-ethyl)-propionamide” has a step yield of 58%.
With “3-((E)-(1S,9S,20R)-5-Hydroxy-6,6-cyclopropyl-3,8,18,21-tetraoxo-2-oxa-11,12-dithia-7,19,22-triaza-bicyclo[7.7.6]docos-15-en-20-yl)-propionic acid” the step yield was 44%.
Work on “3-((E)-(1S,10S,21R)-7,7-Cyclopropyl-3,6,9,19,22-pentaoxo-2-oxa-12,13-dithia-5,8,20,23-tetraaza-bicyclo[8.7.6]tricos-16-en-21-yl)-propionic acid” yielded a step yield of 95%.
In the case of “3-((E)-(1S,10S,21R)-7,7-Dimethyl-3,6,9,19,22-pentaoxo-2-oxa-12,13-dithia-5,8,20,23-tetraaza-bicyclo[8.7.6]tricos-16-en-21-yl)-N-(2,2,2-trifluoro-ethyl)-propionamide”, the step yield is reported as 22%.
In the case of “3-((E)-(1S,10S,21R)-7,7-Dimethyl-3,6,9,19,22-pentaoxo-2-oxa-12,13-dithia-5,8,20,23-tetraaza-bicyclo[8.7.6]tricos-16-en-21-yl)-propionic acid”, the step yield is reported as 83%.
With “3-((E)-(1S,10S,21R)-7,7-cyclopropyl-3,6,9,19,22-pentaoxo-2-oxa-12,13-dithia-5,8,20,23-tetraaza-bicyclo[8.7.6]tricos-16-en-21-yl)-N,N-diethyl-propionamide” the step yield was 46%.
“3-((E)-(1S,10S,21R)-7,7-cyclopropyl-3,6,9,19,22-pentaoxo-2-oxa-12,13-dithia-5,8,20,23-tetraaza-bicyclo[8.7.6]tricos-16-en-21-yl)-N-(2-morpholin-4-yl-ethyl)-propionamide” showed a step yield of 34%.
“3-((E)-(1S,10S,21R)-7-cyclobutyl-3,6,9,19,22-pentaoxo-2-oxa-12,13-dithia-5,8,20,23-tetraaza-bicyclo[8.7.6]tricos-16-en-21-yl)-propionic acid” gave a step yield of 76%.
“(E)-(1S,10S,21R)-7,7-Cyclopropyl-21-(3-morpholin-4-yl-3-oxo-propyl)-2-oxa-12,13-dithia-5,8,20,23-tetraaza-bicyclo[8.7.6]tricos-16-ene-3,6,9,19,22-pentaone” gave a step yield of 27%.
“(E)-(1S,10S,21R)-7,7-Cyclopropyl-21-[3-(4-methyl-piperazin-1-yl)-3-oxo-propyl]-2-oxa-12,13-dithia-5,8,20,23-tetraaza-bicyclo[8.7.6]tricos-16-ene-3,6,9,19,22-pentaone” gave a step yield of 47%.
“N-(2-Cyano-ethyl)-3-((E)-(1S,10S,21R)-7,7-cyclopropyl-3,6,9,19,22-pentaoxo-2-oxa-12,13-dithia-5,8,20,23-tetraaza-bicyclo[8.7.6]tricos-16-en-21-yl)-propionamide” gave a step yield of 29%.

Same assay, conditions: oxidative folding step
With “3-((E)-(1S,10S,21R)-7,7-Cyclopropyl-3,6,9,19,22-pentaoxo-2-oxa-12,13-dithia-5,8,20,23-tetraaza-bicyclo[8.7.6]tricos-16-en-21-yl)-propionic acid tert-butyl ester” the oxidative folding yield was 65%.
“3-((E)-(1S,10S,21R)-7,7-Dimethyl-3,6,9,19,22-pentaoxo-2-oxa-12,13-dithia-5,8,20,23-tetraaza-bicyclo[8.7.6]tricos-16-en-21-yl)-propionic acid tert-butyl ester” showed an oxidative folding yield of 81%.
In the case of “3-((E)-(1S,10S,21R)-7-cyclobutyl-3,6,9,19,22-pentaoxo-2-oxa-12,13-dithia-5,8,20,23-tetraaza-bicyclo[8.7.6]tricos-16-en-21-yl)-propionic acid tert-butyl ester”, the oxidative folding yield is reported as 93%.

Same assay, conditions: oxidative folding step; run 1
“3-((E)-(1S,9S,20R)-5-Hydroxy-6,6-cyclopropyl-3,8,18,21-tetraoxo-2-oxa-11,12-dithia-7,19,22-triaza-bicyclo[7.7.6]docos-15-en-20-yl)-propionic acid tert-butyl ester [XIa isomer 1]” showed an oxidative folding yield of 32%.
For “3-((E)-(1S,9S,20R)-5-Hydroxy-6,6-cyclopropyl-3,8,18,21-tetraoxo-2-oxa-11,12-dithia-7,19,22-triaza-bicyclo[7.7.6]docos-15-en-20-yl)-propionic acid tert-butyl ester [XIa isomer 2]”, the oxidative folding yield was 26%.
